Test results published in patent US12570923B2, “Tuning sulfonation and controlling oleo-furan surfactant compositions” (SIRONIX RENEWABLES, INC., priority 2021, dated 2026).
Some results were stated once for a whole list of compounds, not compound by compound. At least one compound was matched to its structure with a doubt left.

Experiment: Krafft point (temperature below which the surfactant forms a solid precipitate)
Type: physicochemical
Protocol: Certain surfactant properties and performance metrics of synthesized surfactants structures according to General Structure 1 (GS1), including several exemplary surfactant blends prepared according to the methods disclosed previously herein, were measured. […] For example, the α-OMFS-12-1/O surfactant with a sulfonate on the surfactant's alkyl chain provides faster wetting kinetics, as compared to the ring sulfonate 4-OMFS-12-1/O which has slower fabric wetting kinetics yet generates more foam in high shear conditions, or the disulfonate surfactant sulfonated on both the ring and alkyl chain (4,α-OMFS-12-1/O) which has slower fabric wetting and generates less foam than either of the aforementioned monosulfonates surfactants, yet has a higher solubility that can be helpful in building product formulations. Accordingly, these differing performance metrics can be leveraged by selecting the particular disclosed surfactant structure corresponding to the performance metrics useful in a specific application of the surfactant structure.

Structure (SMILES) | Krafft Point (listed as B2-2) | Krafft Point (listed as B2-4)
CCCCCCCCCCCCC(C(=O)c1cc(S(=O)(=O)[O-])c(C)o1)S(=O)(=O)[O-].[Na+].[Na+] (stereo not drawn) [Na^+ 4,α-OMFS-14-1/0] | < 0 °C | –
CCCCCCCCCCCCCCCCC(C(=O)c1cc(S(=O)(=O)[O-])c(C)o1)S(=O)(=O)[O-].[Na+].[Na+] (stereo not drawn) [Na^+ 4,α-OMFS-18-1/0] | – | < 0 °C
